The test has as its target T1, Tudor staphylococcal nuclease 2 tagged with GFP (TSN2-GFP) (Arabidopsis thaliana) (UniProt Q9FLT0).
T1 sequence: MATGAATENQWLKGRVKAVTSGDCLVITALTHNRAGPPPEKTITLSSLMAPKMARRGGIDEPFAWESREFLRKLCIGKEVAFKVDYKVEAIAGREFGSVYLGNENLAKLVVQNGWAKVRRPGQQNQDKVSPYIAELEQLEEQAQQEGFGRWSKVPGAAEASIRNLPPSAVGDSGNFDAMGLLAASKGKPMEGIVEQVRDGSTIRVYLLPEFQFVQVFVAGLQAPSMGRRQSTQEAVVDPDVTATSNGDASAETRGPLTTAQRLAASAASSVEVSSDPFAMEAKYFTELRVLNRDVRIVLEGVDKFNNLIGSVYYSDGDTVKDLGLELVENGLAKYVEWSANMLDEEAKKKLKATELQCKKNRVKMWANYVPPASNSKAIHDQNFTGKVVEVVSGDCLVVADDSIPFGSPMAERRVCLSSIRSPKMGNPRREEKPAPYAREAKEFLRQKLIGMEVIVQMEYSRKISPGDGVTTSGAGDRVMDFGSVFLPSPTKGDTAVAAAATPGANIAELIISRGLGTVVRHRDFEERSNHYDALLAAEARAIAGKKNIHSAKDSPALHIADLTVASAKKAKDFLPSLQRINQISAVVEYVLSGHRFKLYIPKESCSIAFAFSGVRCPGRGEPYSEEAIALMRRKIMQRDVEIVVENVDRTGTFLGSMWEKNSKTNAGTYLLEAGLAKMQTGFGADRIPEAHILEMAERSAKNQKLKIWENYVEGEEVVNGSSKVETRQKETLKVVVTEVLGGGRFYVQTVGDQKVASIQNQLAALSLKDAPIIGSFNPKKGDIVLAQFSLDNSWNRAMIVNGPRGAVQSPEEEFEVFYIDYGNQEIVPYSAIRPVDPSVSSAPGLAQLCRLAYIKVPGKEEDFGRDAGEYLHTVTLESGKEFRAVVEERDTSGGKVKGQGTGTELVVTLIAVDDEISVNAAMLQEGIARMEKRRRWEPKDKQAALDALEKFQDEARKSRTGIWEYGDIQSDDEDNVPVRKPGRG
Put plainly: co-IP; protein extracts from leaves of 3-wk-old transgenic Arabidopsis co-expressing GFP-TCTP or TSN2-GFP with MC1-RFP; plants kept in control (NS) conditions or heat stressed (HS, 39 °C for 40 min); input and IP fractions immunoblotted with α-GFP or α-RFP.

Results are given in words; binding and its absence hold for the method and conditions named. Binding seen in cells or lysates may run through a third protein. Some results given as binding are weak or reduced against the parent protein; the word gives no strength. Where a sequence is shown, tags or fusion partners need not be part of it.

B1: Arabidopsis metacaspase MC1 tagged with RFP (MC1-RFP) (protein, UniProt Q7XJE6 1-367)
chain: MYPPPPSSIYAPPMLVNCSGCRTPLQLPSGARSIRCALCQAVTHIADPRTAPPPQPSSAPSPPPQIHAPPGQLPHPHGRKRAVICGISYRFSRHELKGCINDAKCMRHLLINKFKFSPDSILMLTEEETDPYRIPTKQNMRMALYWLVQGCTAGDSLVFHYSGHGSRQRNYNGDEVDGYDETLCPLDFETQGMIVDDEINATIVRPLPHGVKLHSIIDACHSGTVLDLPFLCRMNRAGQYVWEDHRPRSGLWKGTAGGEAISISGCDDDQTSADTSALSKITSTGAMTFCFIQAIERSAQGTTYGSLLNSMRTTIRNTGNDGGGSGGVVTTVLSMLLTGGSAIGGLRQEPQLTACQTFDVYAKPFTL
For the molecule B1, the binding result is “binds”.

For the origin of these results see PMC10473220.
